This is an account of results in patent US7488832B2, “Azolylacylguanidines as β-secretase inhibitors” (Wyeth, priority 2005, dated 2009).

Protein sequences, listed by entry. Tags and fused reporters are not part of them. Residues count along the entry.
UniProt P56817, 46-501 limits assumed: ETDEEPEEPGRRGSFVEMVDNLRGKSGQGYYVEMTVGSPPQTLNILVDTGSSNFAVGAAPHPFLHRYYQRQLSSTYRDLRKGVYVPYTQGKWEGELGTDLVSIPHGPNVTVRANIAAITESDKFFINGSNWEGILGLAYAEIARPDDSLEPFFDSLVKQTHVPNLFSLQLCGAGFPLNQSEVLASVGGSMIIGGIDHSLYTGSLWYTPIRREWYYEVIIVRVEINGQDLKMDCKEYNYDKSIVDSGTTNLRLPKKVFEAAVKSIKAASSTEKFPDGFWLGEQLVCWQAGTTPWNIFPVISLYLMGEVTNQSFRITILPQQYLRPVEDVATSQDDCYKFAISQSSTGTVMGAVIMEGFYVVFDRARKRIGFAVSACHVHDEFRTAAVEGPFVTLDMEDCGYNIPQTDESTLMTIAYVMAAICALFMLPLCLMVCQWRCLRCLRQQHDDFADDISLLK

This test has as its target human BACE1 (Homo sapiens, UniProt P56817). Kind of test: Fluorescent kinetic assay, human BACE1 (FRET peptide substrate WABC-6).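 Also: fluorescence monitored at excitation 320 nm and emission 420 nm over 30 min, with the substrate cleavage rate taken as the linear slope of the signal.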 It is filed as biochemical. Conditions: read-out: IC50 (μM) BACE 1, 25 μM substrate WABC-6, pH 4.5, room temperature.

Structures were worked out from names or drawings and are uncertain.

Turning to `NC(=NC(=O)Cn1c(-c2ccccc2)ccc1C12CC3CC(CC(C3)C1)C2)NC1CC1`, the IC50 lay within 0.11 to 1 µM.
For `NC(=NC(=O)Cn1c(-c2ccccc2)ccc1C12CC3CC(CC(C3)C1)C2)NCC1CCCCC1` the value was 0.11 to 1 µM.

By IC50 is commonly meant the concentration that gives 50% inhibition.
